Laboratory results from publication PMC8525590.
Results are given in words; binding and its absence hold for the method and conditions named. Binding seen in cells or lysates may run through a third protein. Some results given as binding are weak or reduced against the parent protein; the word gives no strength.

Sequences of proteins named here, by UniProt entry; tags and fusion partners are left off.
UniProt Q01094: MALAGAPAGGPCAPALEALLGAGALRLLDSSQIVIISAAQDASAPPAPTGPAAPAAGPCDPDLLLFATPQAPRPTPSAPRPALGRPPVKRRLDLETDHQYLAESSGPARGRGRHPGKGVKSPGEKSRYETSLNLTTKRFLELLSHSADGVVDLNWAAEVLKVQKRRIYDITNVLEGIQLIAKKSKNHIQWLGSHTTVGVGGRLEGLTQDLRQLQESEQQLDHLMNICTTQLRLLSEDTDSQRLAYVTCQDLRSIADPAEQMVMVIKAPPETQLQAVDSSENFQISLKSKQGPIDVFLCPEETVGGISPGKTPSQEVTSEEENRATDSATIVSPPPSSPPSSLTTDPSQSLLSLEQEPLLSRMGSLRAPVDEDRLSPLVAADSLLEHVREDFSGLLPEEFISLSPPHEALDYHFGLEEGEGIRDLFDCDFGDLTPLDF

Target: E2F1, endogenous in ACHN cells (human (endogenous in ACHN)) (UniProt Q01094)
Assay: co-IP; endogenous proteins in ACHN cells; 1 ug target antibody on protein A/G magnetic beads, incubated with cell lysate overnight at 4°C, washed with IP buffer, Western blotting

B1: Proline rich 11 (PRR11), endogenous in ACHN cells (protein, UniProt Q96HE9 1-360)
chain: MPKFKQRRRKLKAKAERLFKKKEASHFQSKLITPPPPPPSPERVGISSIDISQSRSWLTSSWNFNFPNIRDAIKLWTNRVWSIYSWCQNCITQSLEVLKDTIFPSRICHRELYSVKQQFCILESKLCKLQEALKTISESSSCPSCGQTCHMSGKLTNVPACVLITPGDSKAVLPPTLPQPASHFPPPPPPPPLPPPPPPLAPVLLRKPSLAKALQAGPLKKDGPMQITVKDLLTVKLKKTQSLDEKRKLIPSPKARNPLVTVSDLQHVTLKPNSKVLSTRVTNVLITPGKSQMDLRKLLRKVDVERSPGGTPLTNKENMETGTGLTPVMTQALRRKFQLAHPRSPTPTLPLSTSSFDEQN
For B1, which binding is on record?
Its binding is “binds”.
